The record followed here is patent US20210171576A1, “METHODS FOR TREATING CANCER WITH ACYLDEPSIPEPTIDE ANALOGS” (priority 2018, published 2021).

The series has as its system mitochondrial proteins of HEK293 T-REx cells. Nature of the series: Mitochondrial proteome profiling for WT and CLPP^−/− (fold change CLPP^−/−/WT). On the set-up: species or system human. The settings on record: MaxQuant total peptide ion intensity.
[1] abbreviates: fold change of mitochondrial protein detected in CLPP knockout compared to WT HEK293 T-REx cells.

AIFM1: the “Avg. fold change (CLPP KO/WT)” value under setting [1] is recorded as −1.48. Consider ATP5B, for which, under setting [1], the “Avg. fold change (CLPP KO/WT)” value is listed as 1.45. As to ATP5H, the “Avg. fold change (CLPP KO/WT)” value under setting [1] was 1.09. For CKMT1A, the “Avg. fold change (CLPP KO/WT)” value under setting [1] is on record as −1.44.

Take CLPX: under setting [1], the “Avg. fold change (CLPP KO/WT)” value was −1.09. On to DLST, for which the “Avg. fold change (CLPP KO/WT)” value under setting [1] came to 1.46. HADHA: under setting [1], the “Avg. fold change (CLPP KO/WT)” value amounted to 1.40. As for HSPA9, the “Avg. fold change (CLPP KO/WT)” value under setting [1] is 1.08. Consider HSPE1, for which, under setting [1], the “Avg. fold change (CLPP KO/WT)” value is −1.14. Consider PDHX, for which, under setting [1], the “Avg. fold change (CLPP KO/WT)” value is −2.36. As to POLRMT, under setting [1], the “Avg. fold change (CLPP KO/WT)” value stood at 1.79. Take RHOT1: the “Avg. fold change (CLPP KO/WT)” value under setting [1] is listed as −3.16. For the substance SDHA, the “Avg. fold change (CLPP KO/WT)” value ([…]) was 5.48.

Regarding SLC25Al, the “Avg. fold change (CLPP KO/WT)” value under setting [1] came out at 2.58. As to TIMM13, under setting [1], the “Avg. fold change (CLPP KO/WT)” value is on record as −1.70. In the case of TOMM20, under setting [1], the “Avg. fold change (CLPP KO/WT)” value is 3.78.
